{"source": "patent US5753516A", "about": "“Screening method for ligands of the EBI-1 receptor” (priority 1995, dated 1998)", "origin": "cited, not measured here", "test_system": "human peripheral blood T cells", "settings": "read-out: Kd, single type naloxone binding site; Madden et al., 1987; cited from earlier work", "note": "pKd: −log10 of the molar value."}
{"compound": "C=CCN1CC[C@]23c4c5ccc(O)c4O[C@H]2C(=O)CC[C@@]3(O)[C@H]1C5", "note": "[Naloxone]", "values": [{"measurement": "pKd", "value": 7.25}]}
